“Also recorded” adds a separate entry of the source. For at least one compound, name, drawing or mass did not settle the structure.
Tested on: human umbilical vein endothelial cells
Test: Endothelial permeability assay: passage of FITC-conjugated dextran through thrombin-treated endothelial cell monolayers in transwells
Type: cell-based
Conditions: pre-treated 15 mins, then thrombin 0.2 U/ml
Method: Cells were used at passage 4 or less. For infection with adenoviral constructs, cells were grown to 80% confluence and exposed to 2.5×10^6 plaque forming units/25 cm^2 culture area for 2 hours in M119 medium with 2% FCS and a further 22 hours with 20% FCS.
Endothelial cells (10^5) were cultured in transwells (3 μ-pore size, Corning Costar Corp, Cambridge, Mass., USA) for 24 hours in complete medium and then in 2% FCS medium for a further 24 hours. Cells were pre-treated with either bisindolylmaleimide I (10 nM or 6 μM), Calphostin C (100 nM), chelerythrine chloride (1 μM), H-89 (50 nM) or angiopoietin-1 (0.1 μg/ml), as required. FITC-conjugated dextran (0.2 μg) was added to the upper chamber of all wells and cells were then treated with thrombin (0.2 U/ml). […] Adenovirus infected ECs were plated on to transwells 24 hours after the above infection procedure and treated in the same manner as uninfected cells.

Structure (SMILES) | effect on thrombin stimulated endothelial cell permeability increase (10 μM) | effect on thrombin stimulated endothelial cell permeability increase (1 μM) | effect on thrombin stimulated endothelial cell permeability increase (1 μM, listed as Chelerythrine chloride)
O=c1cc(N2CCOCC2)oc2c(-c3ccccc3)cccc12 [LY294002] | inhibited thrombin-induced permeability increases; also recorded: blocking thrombin-stimulated permeability increases |  | 
COc1ccc2c(c[n+](C)c3c4cc5c(cc4ccc23)OCO5)c1OC [chelerythrine chloride, Chelerythrine chloride] |  | inhibited thrombin stimulation of endothelial cell permeability | blocks thrombin-stimulated permeability increases

Reference: US20060111286A1, “Method of modulating endothelial cell activity” (priority 2002, published 2006)
